These are yes or no findings as the source states them, for the method shown. Binding can be weak; no strength is given.
B1: B4-15-1 (antibody, V domains shown)
VH: SGGLEESGGRLVTPGTPLTLTCTASGFTINSAHMSWVRQAPGKGLEWIGFSTTGGPSYYANWAKGRFTISRTSTTVDLEITSPTIEDTATYFCARDGPGNNIDMDLWGQGTLVTITS
VL: ELDLTQTPASVSEPVGGTVTIKCQASQNRGGSIAWYQQKPGQPPKLLIYSASTLASGVPSRFSGSGYGTEFTLTISGVQCADAGTYYCQSTIYSISDIGAFGGGTEVVVK
notes: Rabbit monoclonal antibody against human LILRB4 ECD
B2: B4-49 (antibody, V domains shown)
VH: QSLEESGGDLVKPGASLTLTCTASGFDFSSSGWICWVRQAPGKGLELIACIYSGRSGSTYYASWAKGRVTISKTSSTTVTLQMTSLTAADTATYFCARALYVDYVDYDYIDLWGPGTLVTVSS
VL: ELDLTQTPASVEAAVGGTVTIKCQASQSTGIRLAWYQQKPGQPPKLLMYATSNLASGVSSRFKGSGSGTEFTLTISDLECADAATYYCQYSYYGSSYVFDFGGGTEVEIK
notes: Rabbit monoclonal antibody
B3: B4-86 (antibody, V domains shown)
VH: EQSVESGGDLVKPEGSLTLTCTVSGFSFSSSYWICWVRQAPGKGLEWIGCIGTGSGSTYYGSWAKGRFTISKTSSTTVTLQMTSLTAADTATYFCVRGAGYSSYRLWGPGTLVTISS
VL: ELDMTQTPASVSEPVGGTVTIKCQASESVSNWLAWYQQKPGQRPKLLIYGASTLESGVPSRFSGSGSGTEFTLTISNLECADAATYYCQQGYDWDNIDNAFGGGTEVVVK
notes: Rabbit monoclonal antibody
B4: B4-87 (antibody, V domains shown)
VH: QSVKESGGDLVKPGASLTLTCTASGFSFISTYWICWVRQAPGKGLELIACIYTGGSGSTYYASWAKGRFTISKTSSTTVTLQLNSLTAADTATYFCARALYVDYVDYDYIDLWGPGTLVTVSS
VL: ELDLTQTPASVEAAVGGTVTIKCQASENIGSRLAWYQQKPGQPPKLLIYAASNLASGVSSRFKGSRSGTQFTLTISDLECADAAIYYCQCSYYGSTYVFGFGGGTEVEIK
notes: Rabbit monoclonal antibody
B5: B4-116-1 (antibody, V domains shown)
VH: EQSVEESGGDLVKPGASLTLTCAASGFSFSSTYCMCWVRQAPGKGLEWIACIHGVSTNNRWYASWPKGRFTISKTSSTTVTLQMTSLTAADTATYFCARSDTDYEWGLSLWGPGTLVTISS
VL: ELDLTQTPASVSEPVGGTVTIKCQASESIGSRLAWYQQKPGQRPKLLIYKASTLASGVPSRFSGSGSGTEFTLTVSDLECADVAAYYCQCAGQSSTWAFGGGTEVEIK
notes: Rabbit monoclonal antibody
B6: B4-116-2 (antibody, V domains shown)
VH: EQSVEESGGDLVKPGASLTLTCAASGFSFSSTYCMCWVRQAPGKGLEWIACIHGVSTNNRWYASWPKGRFTISKTSSTTVTLQMTSLTAADTATYFCARSDTDYEWGLSLWGPGTLVTISS
VL: ELVMTQTPASVEAVVGGTVTIKCQASESIGSRLAWYQQKPGQRPKLLIYKASTLASGVPSRFSGSGSGTEFTLTVSDLECADVAAYYCQCAGQSSTWAFGGGTEVVVK
notes: Rabbit monoclonal antibody
B7: h193 antibody No. 19 (h193-H3 / h193-K1) (antibody, V domains shown)
VH: EVQLVESGGGLVQPGGSLRLSCAASGFSLSSSYWISWVRQAPGKGLEWIGSIDSGSVGITYYATWAKGRFTISRDNSKNTLYLQMNSLRAEDTAVYYCARHGDNWALDLWGQGTLVTVSS
VL: DIQMTQSPSTLSASVGDRVTITCQASQSINSWLAWYQQKPGKAPKLLIYKASTLASGVPSRFSGSGSGTEFTLTISSLQPDDFATYYCQHGYIRGDLDNVFGGGTKVEIK
B8: h193 antibody No. 20 (h193-H3 / h193-K2) (antibody, V domains shown)
VH: EVQLVESGGGLVQPGGSLRLSCAASGFSLSSSYWISWVRQAPGKGLEWIGSIDSGSVGITYYATWAKGRFTISRDNSKNTLYLQMNSLRAEDTAVYYCARHGDNWALDLWGQGTLVTVSS
VL: DLVMTQSPSTLSASVGDRVTITCQASQSINSWLAWYQQKPGKPPKLLIYKASTLASGVSSRFSGSGSGTEFTLTISSLQPDDVATYYCQHGYIRGDLDNVFGGGTKVEIK
B9: h193 antibody No. 23 (h193-H4 / h193-K1) (antibody, V domains shown)
VH: EVQLVESGGGLVQPGGSLRLSCAASGFSLSSSYWISWVRQAPGKGLEWVSSIDSGSVGITYYATWAKGRFTISRDNSKNTLYLQMNSLRAEDTAVYYCARHGDNWALDLWGQGTLVTVSS
VL: DIQMTQSPSTLSASVGDRVTITCQASQSINSWLAWYQQKPGKAPKLLIYKASTLASGVPSRFSGSGSGTEFTLTISSLQPDDFATYYCQHGYIRGDLDNVFGGGTKVEIK
B10: h193 antibody No. 24 (h193-H4 / h193-K2) (antibody, V domains shown)
VH: EVQLVESGGGLVQPGGSLRLSCAASGFSLSSSYWISWVRQAPGKGLEWVSSIDSGSVGITYYATWAKGRFTISRDNSKNTLYLQMNSLRAEDTAVYYCARHGDNWALDLWGQGTLVTVSS
VL: DLVMTQSPSTLSASVGDRVTITCQASQSINSWLAWYQQKPGKPPKLLIYKASTLASGVSSRFSGSGSGTEFTLTISSLQPDDVATYYCQHGYIRGDLDNVFGGGTKVEIK
B11: h193 antibody No. 27 (h193-H5 / h193-K1) (antibody, V domains shown)
VH: EVQLVESGGGLVQPGGSLRLSCAASGFSLSSSYWISWVRQAPGKGLEWIGVIDSGSVGITYYATWAKGRFTISRDNSKNTLYLQMNSLRAEDTAVYYCARHGDNWALDLWGQGTLVTVSS
VL: DIQMTQSPSTLSASVGDRVTITCQASQSINSWLAWYQQKPGKAPKLLIYKASTLASGVPSRFSGSGSGTEFTLTISSLQPDDFATYYCQHGYIRGDLDNVFGGGTKVEIK
B12: h193 antibody No. 28 (h193-H5 / h193-K2) (antibody, V domains shown)
VH: EVQLVESGGGLVQPGGSLRLSCAASGFSLSSSYWISWVRQAPGKGLEWIGVIDSGSVGITYYATWAKGRFTISRDNSKNTLYLQMNSLRAEDTAVYYCARHGDNWALDLWGQGTLVTVSS
VL: DLVMTQSPSTLSASVGDRVTITCQASQSINSWLAWYQQKPGKPPKLLIYKASTLASGVSSRFSGSGSGTEFTLTISSLQPDDVATYYCQHGYIRGDLDNVFGGGTKVEIK
B13: h193 antibody No. 31 (h193-H6 / h193-K1) (antibody, V domains shown)
VH: EVQLVESGGGLVQPGGSLRLSCAASGFSLSSSYWISWVRQAPGKGLEWIGSIDSGSVGITYYATSAKGRFTISRDNSKNTLYLQMNSLRAEDTAVYYCARHGDNWALDLWGQGTLVTVSS
VL: DIQMTQSPSTLSASVGDRVTITCQASQSINSWLAWYQQKPGKAPKLLIYKASTLASGVPSRFSGSGSGTEFTLTISSLQPDDFATYYCQHGYIRGDLDNVFGGGTKVEIK
B14: h193 antibody No. 32 (h193-H6 / h193-K2) (antibody, V domains shown)
VH: EVQLVESGGGLVQPGGSLRLSCAASGFSLSSSYWISWVRQAPGKGLEWIGSIDSGSVGITYYATSAKGRFTISRDNSKNTLYLQMNSLRAEDTAVYYCARHGDNWALDLWGQGTLVTVSS
VL: DLVMTQSPSTLSASVGDRVTITCQASQSINSWLAWYQQKPGKPPKLLIYKASTLASGVSSRFSGSGSGTEFTLTISSLQPDDVATYYCQHGYIRGDLDNVFGGGTKVEIK
B15: h193 antibody No. 33 (h193-H6 / h193-K3) (antibody, V domains shown)
VH: EVQLVESGGGLVQPGGSLRLSCAASGFSLSSSYWISWVRQAPGKGLEWIGSIDSGSVGITYYATSAKGRFTISRDNSKNTLYLQMNSLRAEDTAVYYCARHGDNWALDLWGQGTLVTVSS
VL: DIQMTQSPSTLSASVGDRVTITCRASQSINSWLAWYQQKPGKAPKLLIYKASTLASGVPSRFSGSGSGTEFTLTISSLQPDDFATYYCQHGYIRGDLDNVFGGGTKVEIK
B16: h193 antibody No. 35 (h193-H7 / h193-K1) (antibody, V domains shown)
VH: EVQLVESGGGLVQPGGSLRLSCAASGFSLSSSYWISWVRQAPGKGLEWIGSIDSGSVGITYYATWVKGRFTISRDNSKNTLYLQMNSLRAEDTAVYYCARHGDNWALDLWGQGTLVTVSS
VL: DIQMTQSPSTLSASVGDRVTITCQASQSINSWLAWYQQKPGKAPKLLIYKASTLASGVPSRFSGSGSGTEFTLTISSLQPDDFATYYCQHGYIRGDLDNVFGGGTKVEIK
B17: h193 antibody No. 36 (h193-H7 / h193-K2) (antibody, V domains shown)
VH: EVQLVESGGGLVQPGGSLRLSCAASGFSLSSSYWISWVRQAPGKGLEWIGSIDSGSVGITYYATWVKGRFTISRDNSKNTLYLQMNSLRAEDTAVYYCARHGDNWALDLWGQGTLVTVSS
VL: DLVMTQSPSTLSASVGDRVTITCQASQSINSWLAWYQQKPGKPPKLLIYKASTLASGVSSRFSGSGSGTEFTLTISSLQPDDVATYYCQHGYIRGDLDNVFGGGTKVEIK
B18: h193 antibody No. 37 (h193-H7 / h193-K3) (antibody, V domains shown)
VH: EVQLVESGGGLVQPGGSLRLSCAASGFSLSSSYWISWVRQAPGKGLEWIGSIDSGSVGITYYATWVKGRFTISRDNSKNTLYLQMNSLRAEDTAVYYCARHGDNWALDLWGQGTLVTVSS
VL: DIQMTQSPSTLSASVGDRVTITCRASQSINSWLAWYQQKPGKAPKLLIYKASTLASGVPSRFSGSGSGTEFTLTISSLQPDDFATYYCQHGYIRGDLDNVFGGGTKVEIK

These binders were tested against cynomolgus monkey LILRB4 (cynomolgus monkey) (assay: flow cytometry, cynob4-expressing CHO cells, MFI).

**Q.** For B1, which binding is on record?
**A.** binds

**Q.** How did the binding turn out when B2 was run?
**A.** binds

**Q.** B3 was tested. Which binding did it give?
**A.** binds

**Q.** For B4, which binding is on record?
**A.** binds

**Q.** For B5, which binding is on record?
**A.** binds

**Q.** With B6 as the binder, how does the binding read?
**A.** binds

The binders below were run against cynomolgus monkey LILRB4 (cynomolgus monkey) (assay: flow cytometry on cynomolgus monkey LILRB4, MFI).

**Q.** With B7 as the binder, how does the binding read?
**A.** binds

**Q.** Which binding does the source give for B8 here?
**A.** binds

**Q.** B9 was tested. Which binding did it give?
**A.** binds

**Q.** Which binding does the source give for B10 here?
**A.** binds

**Q.** For B11, which binding is on record?
**A.** binds

**Q.** For B12, which binding is on record?
**A.** binds

**Q.** B13 was tested. Which binding did it give?
**A.** binds

**Q.** B14 was tested. Which binding did it give?
**A.** binds

**Q.** How did the binding turn out when B15 was run?
**A.** binds

**Q.** With B16 as the binder, how does the binding read?
**A.** binds

**Q.** With B17 as the binder, how does the binding read?
**A.** binds

**Q.** How did the binding turn out when B18 was run?
**A.** binds

From patent US20210371518A1 (University of Texas, published 2021)
